At least one compound was matched to its structure with a doubt left.
What was measured:
[1] = system: E2F; experiment: E2F reporter activity in 1205Lu xenografts (luciferase normalized to tdTomato); type: in vivo, immunodeficient nude mice; conditions: drug-laced chow
From the text: (§1) FIG. 7 A depicts the E2F reporter system for measuring the efficacy of CDK4/6 and MEK inhibitors in vivo. Firefly luciferase is expressed under the control of E2F response elements. […] CR=complete response. FIG. 7D depicts analysis of E2F reporter activity normalized to tdTomato fluorescent protein activity in 1205Lu xenografts. […] CR=complete response. FIG. 7G depicts representative images of 1205Lu xenografts taken from mice fed vehicle, MEK inhibitor, CDK4/6 inhibitor and combo-laced chow analyzed for Ki67. FIG. 7H depicts quantitation of Ki67 positive cells (% of total cells) taken from mice fed vehicle (n=2), MEK inhibitor (n=4), CDK4/6 inhibitor (n=4) and combo laced chow (n=4).
(§2) Indeed, in a performed xenograft mouse model, 1205Lu reporter cells were intradermally injected into immunodeficient nude mice.
(§3) Mice were retreated with combination regimen at day 67. FIG. 9B depicts modulation of E2F activity in combination treated mice following drug removal and retreatment. […] FIG. 9C depicts RPPA analysis on resistant tumors.

[2] = system: 1205Lu xenografts; experiment: 1205Lu xenografts, control chow vs palbociclib chow (FIG. 3E); type: in vivo, mice; conditions: single agent
[3] = system: Phospho-RB1, FOXM1, Bim-EL, cleaved PARP; experiment: RPPA profiling / Western blot of signaling proteins; type: cell-based, human; conditions: for Bim-EL level (RPPA, Western blot): A375 cells
[4] = system: 1205Lu xenografts; experiment: 1205Lu reporter xenograft model, tumor volume / response; type: in vivo, immunodeficient nude mice; conditions: drug-laced chow
From the text: as §1, §2, §3

[5] = system: melanoma cells; experiment: Propidium iodide (PI)-based cell cycle analysis; parameters: species or system human; conditions: Twenty-four hour treatment
[6] = system: melanoma cell lines; experiment: MTT cell viability assay in a panel of melanoma cell lines; type: cell-based, human
[7] = system: human melanoma lines; experiment: Annexin V staining (apoptosis); type: cell-based; conditions: WM793 and 1205Lu cells; MEK inhibition alone

Row | Structure (SMILES) | E2F reporter activity in tumors on treatment [1] | 1205Lu tumor growth in vivo [2] | Bim-EL level (RPPA, Western blot) [3] | tumor growth / regression on treatment [4] | cell cycle distribution (PI staining) [5] | cleaved PARP levels ([3]; cell lines that showed enhanced effects to the combination) | Bim-EL levels ([3]; combination-resistant CHL-1, BOWES and SKMEL207) | sensitivity to trametinib ([6]; RB1-deficient mutant BRAF SKMEL207 cells) | growth of melanoma cell lines ([6]; all cell lines tested) | apoptosis (annexin V) [7]
1 | CC(=O)c1c(C)c2cnc(Nc3ccc(N4CCNCC4)cn3)nc2n(C2CCCC2)c1=O [palbociclib] | persistent inhibition of the E2F pathway | initially suppressed 1205Lu tumor growth in vivo but progressive growth ensued | unaffected | low but continuous growth | induced a G0/G1 cell cycle arrest but not cell death |  |  |  |  | 
2 | CC(=O)Nc1cccc(-n2c(=O)n(C3CC3)c(=O)c3c(Nc4ccc(I)cc4F)n(C)c(=O)c(C)c32)c1 [trametinib] |  |  | up-regulated |  |  | increased cleaved PARP levels | Moderate changes | decreased sensitivity | blocked the growth of all cell lines tested | sufficient to induce apoptosis

Reference: patent US11571483B2, “E2F reporter melanoma cells” (THOMAS JEFFERSON UNIVERSITY, priority 2015, dated 2023)
